In paper PMC6407677:
Results are given in words; binding and its absence hold for the method and conditions named. In cells and extracts the contact can be indirect. Sequences can lack the tags named with a protein.

Molecular target: T1, GST-POPX2 (human) (UniProt P49593)
T1 sequence: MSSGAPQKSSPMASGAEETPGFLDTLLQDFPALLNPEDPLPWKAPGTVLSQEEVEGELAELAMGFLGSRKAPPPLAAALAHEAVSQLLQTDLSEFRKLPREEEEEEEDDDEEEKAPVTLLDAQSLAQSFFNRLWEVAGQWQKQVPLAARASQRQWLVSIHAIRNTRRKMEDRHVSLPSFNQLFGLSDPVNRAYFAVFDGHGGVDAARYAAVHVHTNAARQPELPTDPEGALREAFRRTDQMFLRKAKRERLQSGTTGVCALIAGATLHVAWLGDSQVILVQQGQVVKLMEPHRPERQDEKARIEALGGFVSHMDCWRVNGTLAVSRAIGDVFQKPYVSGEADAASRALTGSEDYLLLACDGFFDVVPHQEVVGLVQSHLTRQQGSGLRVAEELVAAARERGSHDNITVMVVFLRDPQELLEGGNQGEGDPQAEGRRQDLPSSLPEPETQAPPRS
Assay: co-IP; lysates of HEK293 cells co-expressing GST-POPX2 and the Flag- or Myc-tagged partner; 1 mg lysate on glutathione sepharose beads overnight at 4°C; 25 mM Tris pH 7.5, 150 mM NaCl, 0.5% Triton-X; Western blot with anti-Flag or anti-Myc

Myc-MOB1 (human)
binding: no binding
